This assay has as its target PKC-βI in extracts of human cell lines (human), P05771. Briefly: Western-blot competition, cell extracts: PRE at 10X/20X the anti-PKC beta I primary antibody concentration competes with that antibody; band densitometry (lower band = PRE bound). Conditions: remark: other sources report otherwise.

These are yes or no findings as the source states them, for the method shown. Some results given as binding are weak or reduced against the parent protein; the word gives no strength.

In the case of ILEDKGGDAQNLIGISI [PRE 8], the binding entry is given as “binds”.

(Values after patent publication US20110039770A1, “INHIBITORS OF PROTEIN KINASE C ISOFORMS AND USES THEREOF” (PHARMAGAP INC., priority 2005, published 2011).)
